Reference: the supplement of paper PMC12067093, “Discovery and optimisation of a covalent ligand for TRIM25 and its application to targeted protein ubiquitination” (Chemical Science, 2025)
Some of the results follow.

By UniProt entry, the sequences of proteins in these tests, tags left out. Where a name states a change or a piece, a line headed by the entry shows the natural chain unless it says otherwise.
UniProt Q56NI9: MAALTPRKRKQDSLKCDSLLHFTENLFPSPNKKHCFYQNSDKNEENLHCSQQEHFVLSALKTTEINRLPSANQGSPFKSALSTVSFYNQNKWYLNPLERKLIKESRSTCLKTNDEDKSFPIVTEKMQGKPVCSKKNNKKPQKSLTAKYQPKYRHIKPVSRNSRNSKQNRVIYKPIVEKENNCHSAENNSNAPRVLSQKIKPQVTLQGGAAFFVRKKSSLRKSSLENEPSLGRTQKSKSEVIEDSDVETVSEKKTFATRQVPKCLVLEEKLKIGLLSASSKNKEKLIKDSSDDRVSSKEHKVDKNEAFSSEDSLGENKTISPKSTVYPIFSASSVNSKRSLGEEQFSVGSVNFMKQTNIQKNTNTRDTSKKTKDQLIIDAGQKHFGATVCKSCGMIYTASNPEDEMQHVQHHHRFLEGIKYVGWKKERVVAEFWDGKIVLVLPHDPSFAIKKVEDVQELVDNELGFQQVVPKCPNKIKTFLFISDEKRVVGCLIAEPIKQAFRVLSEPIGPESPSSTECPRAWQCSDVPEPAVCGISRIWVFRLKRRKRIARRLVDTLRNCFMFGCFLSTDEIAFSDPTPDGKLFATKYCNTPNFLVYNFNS
UniProt Q96DZ1: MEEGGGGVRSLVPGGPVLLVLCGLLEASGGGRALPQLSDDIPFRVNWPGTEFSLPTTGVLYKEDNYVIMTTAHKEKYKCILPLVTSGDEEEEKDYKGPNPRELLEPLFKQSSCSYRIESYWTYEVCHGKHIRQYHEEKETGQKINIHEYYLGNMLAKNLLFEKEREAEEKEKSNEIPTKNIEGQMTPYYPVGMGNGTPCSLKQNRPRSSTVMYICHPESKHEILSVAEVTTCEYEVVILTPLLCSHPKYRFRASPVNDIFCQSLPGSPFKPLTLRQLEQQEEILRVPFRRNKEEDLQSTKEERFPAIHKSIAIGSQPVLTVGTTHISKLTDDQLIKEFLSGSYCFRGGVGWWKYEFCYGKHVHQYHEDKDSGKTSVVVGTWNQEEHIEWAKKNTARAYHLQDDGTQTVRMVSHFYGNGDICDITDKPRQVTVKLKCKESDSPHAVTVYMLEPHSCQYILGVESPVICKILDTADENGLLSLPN
UniProt Q15024, whole entry, looked up: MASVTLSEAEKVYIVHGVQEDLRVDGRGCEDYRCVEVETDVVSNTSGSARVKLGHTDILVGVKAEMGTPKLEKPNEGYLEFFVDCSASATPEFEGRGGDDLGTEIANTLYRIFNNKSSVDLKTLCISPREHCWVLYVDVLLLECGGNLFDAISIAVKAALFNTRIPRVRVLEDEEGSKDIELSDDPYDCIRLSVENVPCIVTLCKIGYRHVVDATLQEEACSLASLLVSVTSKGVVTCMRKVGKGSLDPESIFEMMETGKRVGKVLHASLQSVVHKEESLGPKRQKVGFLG
UniProt Q9Y282: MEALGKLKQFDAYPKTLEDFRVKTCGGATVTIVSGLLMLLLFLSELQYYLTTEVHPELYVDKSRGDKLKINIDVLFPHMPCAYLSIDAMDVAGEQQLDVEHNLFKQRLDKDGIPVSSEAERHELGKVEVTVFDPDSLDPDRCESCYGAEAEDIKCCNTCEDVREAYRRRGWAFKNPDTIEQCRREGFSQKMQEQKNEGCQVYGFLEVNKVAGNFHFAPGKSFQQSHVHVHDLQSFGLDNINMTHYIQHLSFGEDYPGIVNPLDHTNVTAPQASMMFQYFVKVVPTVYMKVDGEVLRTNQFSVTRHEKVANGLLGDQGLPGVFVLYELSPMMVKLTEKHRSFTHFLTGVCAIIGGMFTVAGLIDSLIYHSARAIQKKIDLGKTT
UniProt Q9NZB2: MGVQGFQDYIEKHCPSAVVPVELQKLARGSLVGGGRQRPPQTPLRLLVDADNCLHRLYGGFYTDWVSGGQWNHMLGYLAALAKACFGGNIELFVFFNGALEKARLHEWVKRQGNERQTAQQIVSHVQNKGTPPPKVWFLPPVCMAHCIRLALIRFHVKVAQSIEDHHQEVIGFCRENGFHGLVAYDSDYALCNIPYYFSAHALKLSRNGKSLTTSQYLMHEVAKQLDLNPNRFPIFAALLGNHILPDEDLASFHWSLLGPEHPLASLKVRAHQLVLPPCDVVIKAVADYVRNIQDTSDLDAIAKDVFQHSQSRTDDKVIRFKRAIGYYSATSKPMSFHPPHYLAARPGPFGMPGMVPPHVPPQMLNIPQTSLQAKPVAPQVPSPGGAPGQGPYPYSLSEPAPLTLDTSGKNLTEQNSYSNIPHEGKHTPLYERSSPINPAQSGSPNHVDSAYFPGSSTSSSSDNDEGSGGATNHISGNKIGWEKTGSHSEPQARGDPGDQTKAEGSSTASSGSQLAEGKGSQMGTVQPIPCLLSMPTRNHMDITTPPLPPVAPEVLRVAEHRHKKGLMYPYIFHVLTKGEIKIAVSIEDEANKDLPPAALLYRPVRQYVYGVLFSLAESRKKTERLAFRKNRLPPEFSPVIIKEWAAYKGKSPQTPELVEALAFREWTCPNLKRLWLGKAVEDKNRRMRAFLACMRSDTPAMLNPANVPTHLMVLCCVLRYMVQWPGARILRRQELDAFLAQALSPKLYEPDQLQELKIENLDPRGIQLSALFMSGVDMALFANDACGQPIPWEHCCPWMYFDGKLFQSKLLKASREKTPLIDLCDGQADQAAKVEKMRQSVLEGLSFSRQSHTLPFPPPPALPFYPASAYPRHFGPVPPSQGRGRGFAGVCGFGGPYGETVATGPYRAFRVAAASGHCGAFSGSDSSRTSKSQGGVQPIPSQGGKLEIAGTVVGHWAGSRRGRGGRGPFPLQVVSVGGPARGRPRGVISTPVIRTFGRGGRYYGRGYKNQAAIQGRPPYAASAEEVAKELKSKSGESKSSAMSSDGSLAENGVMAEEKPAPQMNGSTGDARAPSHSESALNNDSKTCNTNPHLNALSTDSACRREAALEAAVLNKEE
UniProt P13804: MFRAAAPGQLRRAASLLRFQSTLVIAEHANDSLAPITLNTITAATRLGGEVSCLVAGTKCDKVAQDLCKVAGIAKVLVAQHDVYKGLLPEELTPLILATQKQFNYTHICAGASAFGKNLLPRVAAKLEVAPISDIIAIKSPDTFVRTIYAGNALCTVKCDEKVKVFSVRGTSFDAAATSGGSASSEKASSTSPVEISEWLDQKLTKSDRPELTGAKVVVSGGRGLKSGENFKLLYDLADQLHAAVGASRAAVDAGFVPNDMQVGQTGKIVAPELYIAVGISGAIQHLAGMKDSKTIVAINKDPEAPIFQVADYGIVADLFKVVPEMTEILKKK
UniProt Q8TAG9: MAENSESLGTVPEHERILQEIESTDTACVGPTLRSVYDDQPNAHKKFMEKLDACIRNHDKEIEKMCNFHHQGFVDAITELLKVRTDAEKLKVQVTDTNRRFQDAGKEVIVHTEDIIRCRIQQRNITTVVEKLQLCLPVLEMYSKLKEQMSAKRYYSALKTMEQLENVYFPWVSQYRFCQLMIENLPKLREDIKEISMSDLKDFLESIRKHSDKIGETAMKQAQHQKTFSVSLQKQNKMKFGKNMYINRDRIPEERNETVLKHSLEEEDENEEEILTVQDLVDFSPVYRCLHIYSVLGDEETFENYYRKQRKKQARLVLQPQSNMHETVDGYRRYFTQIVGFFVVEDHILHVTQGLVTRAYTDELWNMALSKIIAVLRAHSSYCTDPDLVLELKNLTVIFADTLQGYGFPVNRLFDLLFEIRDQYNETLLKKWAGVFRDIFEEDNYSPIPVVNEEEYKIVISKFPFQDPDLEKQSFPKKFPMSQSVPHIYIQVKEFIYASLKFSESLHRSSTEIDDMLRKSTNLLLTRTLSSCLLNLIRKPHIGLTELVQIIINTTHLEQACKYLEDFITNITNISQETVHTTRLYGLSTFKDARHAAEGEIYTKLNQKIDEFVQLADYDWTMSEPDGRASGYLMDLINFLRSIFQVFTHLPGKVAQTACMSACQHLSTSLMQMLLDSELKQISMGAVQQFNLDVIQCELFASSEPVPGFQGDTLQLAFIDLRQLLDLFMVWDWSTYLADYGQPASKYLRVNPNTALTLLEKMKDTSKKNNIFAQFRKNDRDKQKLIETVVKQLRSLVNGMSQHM
UniProt Q06265, whole entry, looked up: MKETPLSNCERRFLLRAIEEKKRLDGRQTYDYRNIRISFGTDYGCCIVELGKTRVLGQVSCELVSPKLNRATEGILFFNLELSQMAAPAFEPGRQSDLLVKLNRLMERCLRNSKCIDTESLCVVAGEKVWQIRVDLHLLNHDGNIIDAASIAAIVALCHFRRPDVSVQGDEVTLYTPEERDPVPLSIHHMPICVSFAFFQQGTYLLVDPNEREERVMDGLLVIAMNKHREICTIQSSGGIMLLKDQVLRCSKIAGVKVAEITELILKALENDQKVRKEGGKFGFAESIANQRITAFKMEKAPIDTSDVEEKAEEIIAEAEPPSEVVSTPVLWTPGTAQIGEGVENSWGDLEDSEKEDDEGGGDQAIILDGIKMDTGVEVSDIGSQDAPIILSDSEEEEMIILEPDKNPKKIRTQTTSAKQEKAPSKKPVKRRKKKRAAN
UniProt Q96EK7: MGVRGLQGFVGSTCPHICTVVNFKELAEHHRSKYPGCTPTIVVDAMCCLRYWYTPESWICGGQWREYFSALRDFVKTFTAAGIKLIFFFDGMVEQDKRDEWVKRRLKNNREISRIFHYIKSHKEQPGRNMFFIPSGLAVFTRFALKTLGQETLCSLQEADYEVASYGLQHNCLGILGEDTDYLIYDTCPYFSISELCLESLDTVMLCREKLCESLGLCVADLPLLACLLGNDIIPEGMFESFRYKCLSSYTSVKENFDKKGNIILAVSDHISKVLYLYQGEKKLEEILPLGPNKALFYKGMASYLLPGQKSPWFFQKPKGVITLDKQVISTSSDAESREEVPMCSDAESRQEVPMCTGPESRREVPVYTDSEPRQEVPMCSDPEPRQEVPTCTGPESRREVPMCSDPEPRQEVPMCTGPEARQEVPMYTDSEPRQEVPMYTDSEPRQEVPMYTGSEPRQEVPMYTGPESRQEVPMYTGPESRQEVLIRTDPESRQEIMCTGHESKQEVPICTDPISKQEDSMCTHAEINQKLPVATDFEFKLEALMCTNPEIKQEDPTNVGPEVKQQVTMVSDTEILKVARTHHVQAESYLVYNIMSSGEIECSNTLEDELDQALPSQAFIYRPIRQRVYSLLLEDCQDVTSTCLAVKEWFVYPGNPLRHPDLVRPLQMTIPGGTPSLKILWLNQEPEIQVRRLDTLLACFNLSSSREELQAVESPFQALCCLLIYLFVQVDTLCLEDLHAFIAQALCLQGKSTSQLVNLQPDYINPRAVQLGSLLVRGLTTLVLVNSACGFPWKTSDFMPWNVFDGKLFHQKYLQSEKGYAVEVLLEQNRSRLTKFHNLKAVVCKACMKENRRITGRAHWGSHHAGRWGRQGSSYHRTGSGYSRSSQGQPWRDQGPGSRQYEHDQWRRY
UniProt O00471: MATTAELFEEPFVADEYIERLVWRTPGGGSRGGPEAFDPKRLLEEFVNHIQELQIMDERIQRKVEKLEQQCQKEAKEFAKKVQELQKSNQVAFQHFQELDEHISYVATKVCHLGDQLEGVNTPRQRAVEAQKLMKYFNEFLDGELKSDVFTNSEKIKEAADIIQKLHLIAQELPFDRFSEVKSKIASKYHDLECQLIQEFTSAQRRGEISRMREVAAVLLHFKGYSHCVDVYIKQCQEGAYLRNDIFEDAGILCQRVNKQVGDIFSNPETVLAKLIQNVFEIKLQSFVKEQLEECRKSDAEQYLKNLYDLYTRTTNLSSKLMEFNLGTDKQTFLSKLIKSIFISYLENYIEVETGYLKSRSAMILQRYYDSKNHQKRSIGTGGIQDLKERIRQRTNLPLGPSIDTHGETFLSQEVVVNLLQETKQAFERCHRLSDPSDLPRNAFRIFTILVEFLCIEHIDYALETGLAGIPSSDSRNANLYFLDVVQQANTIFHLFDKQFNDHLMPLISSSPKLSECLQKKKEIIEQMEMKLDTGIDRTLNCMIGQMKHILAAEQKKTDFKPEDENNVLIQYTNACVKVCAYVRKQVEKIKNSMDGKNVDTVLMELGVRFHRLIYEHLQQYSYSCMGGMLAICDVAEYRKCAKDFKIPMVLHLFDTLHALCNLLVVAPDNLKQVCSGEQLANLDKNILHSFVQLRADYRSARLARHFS
UniProt Q5RKV6, whole entry, looked up: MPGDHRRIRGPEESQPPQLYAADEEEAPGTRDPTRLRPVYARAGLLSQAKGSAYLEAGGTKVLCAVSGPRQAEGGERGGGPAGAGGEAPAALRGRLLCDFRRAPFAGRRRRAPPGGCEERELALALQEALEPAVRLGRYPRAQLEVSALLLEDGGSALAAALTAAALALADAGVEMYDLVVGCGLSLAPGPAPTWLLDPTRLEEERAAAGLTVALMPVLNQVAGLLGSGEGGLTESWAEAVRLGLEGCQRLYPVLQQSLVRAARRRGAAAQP

The targets below were run with CC1Cc2ccccc2N1C(=O)C1CCCN(C1)C(=O)CCl (mixture of isomers) [TRIM25 ligand 11 (diastereomer mixture)] (assay: probe-labelled cysteine peptide fold change vs DMSO (competition) (log2 fold change); higher = less target engagement (more negative = stronger competition)). Details: 10 µM; THP-1; incubation time: 4 h.
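Also: competitive chemoproteomic profiling in live THP-1 cells with an iodoacetamide desthiobiotin (IA-DTB) probe, comparing probe-labelled peptide intensities in compound-treated cells against DMSO-treated controls.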

Compared with “ESCO2_Q56NI9_263_CLVLEEK (UniProt Q56NI9)”, “ERLEC1_Q96DZ1_126_IESYWTYEVCHGK (UniProt Q96DZ1)” is higher in “probe-labelled cysteine peptide fold change” value: -0.0573 for the first, 0.206 for the second.

Compared with “EXOSC2_Q13868_259_MMLYDTSILYCYEASLPHQIK (UniProt Q13868)”, “EXOSC7_Q15024_85_PNEGYLEFFVDCSASATPEFEGR (UniProt Q15024)” is higher in “probe-labelled cysteine peptide fold change” value: 0.00869 for the first, 0.527 for the second.

Going from “ERGIC3_Q9Y282_145_VEVTVFDPDSLDPDRCESCYGAEAEDIK (UniProt Q9Y282)” to “FAM120A_Q9NZB2_1103_TCNTNPHLNALSTDSACR (UniProt Q9NZB2)”, the “probe-labelled cysteine peptide fold change” value falls from 0.248 to 0.0512.

Going from “ETFA_P13804_53_LGGEVSCLVAGTK (UniProt P13804)” to “FAF1_Q9UNN5_428_FLTMCNR (UniProt Q9UNN5)”, the “probe-labelled cysteine peptide fold change” value rises from -0.00012 to 0.0874.

Going from “EXOC6_Q8TAG9_561_KPHIGLTELVQIIINTTHLEQACK (UniProt Q8TAG9)” to “EXOSC9_Q06265_232_HREICTIQSSGGIMLLK (UniProt Q06265)”, the “probe-labelled cysteine peptide fold change” value falls from -0.0504 to -0.164.

First: EXOSC9_Q06265_45+46_ISFGTDYGCCIVELGK (UniProt Q06265)
Second: ESCO1_Q5FWF5_160_EQCSSTQSK (UniProt Q5FWF5)
The “probe-labelled cysteine peptide fold change” value of the first is higher: -0.00213 for the first, -0.145 for the second.

Compared with “FAM120B_Q96EK7_547_LEALMCTNPEIK (UniProt Q96EK7)”, “EXOC5_O00471_254_NDIFEDAGILCQR (UniProt O00471)” is lower in “probe-labelled cysteine peptide fold change” value: 0.23 for the first, 0.0965 for the second.

First: EXOSC6_Q5RKV6_117_APPGGCEERELALALQEALEPAVR (UniProt Q5RKV6)
Second: FAM120B_Q96EK7_380_QEVPMCSDPEPR (UniProt Q96EK7)
The “probe-labelled cysteine peptide fold change” value of the first is lower: -0.0695 for the first, -0.00812 for the second.
